Measured values published in the supplement of paper PMC4604168 (melanoma cell lines).
The list shows a part of the results. Repeats are few or missing, and single values can be far off.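 Imaging used 1,536-well plates; nuclei positive for cleaved PARP by antibody were divided by total DNA-stained nuclei to yield the apoptosis fraction. Doses for screening kept most cells viable, and cell lines differ markedly in resting and induced cleaved-PARP levels.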

System: IPC-298
Experiment: cleaved PARP positive nuclei fraction relative to DMSO control; melanoma cells; higher = more apoptosis
Conditions: library dose: low library concentration; 72 h

Compound	cleaved PARP positive nuclei fraction [%]
Cc1cc(Nc2cc(N3CCN(C)CC3)nc(/C=C/c3ccccc3)n2)n[nH]1 + CNC(=O)c1cc(Oc2ccc(NC(=O)Nc3ccc(Cl)c(C(F)(F)F)c3)cc2)ccn1 [sorafenib] (first compound 0.04 µM, partner dose 0.4 µM)	286
O=C(O)c1ccc2c(c1)nc(Nc1cccc(Cl)c1)c1ccncc12 + Nc1nc(F)nc2c1ncn2[C@@H]1O[C@H](CO)[C@@H](O)[C@@H]1O [fludarabine] (first compound 0.4 µM, partner dose 0.2 µM)	83.3
O=C(O)c1ccc2c(c1)nc(Nc1cccc(Cl)c1)c1ccncc12 + Nc1cccc2c1CN(C1CCC(=O)NC1=O)C2=O [lenalidomide] (first compound 0.4 µM, partner dose 1 µM)	60.1
Nc1ncn([C@H]2C[C@H](O)[C@@H](CO)O2)c(=O)n1 [decitabine] + OCc1c[nH]c2ccccc12 [Indole-3-carbinol] (first compound 0.1 µM, partner dose 0.8 µM)	62.2
CC(C)C[C@H](NC(=O)[C@H](Cc1ccccc1)NC(=O)c1cnccn1)B(O)O [Bortezomib] + Cn1c(Nc2ccc(C(F)(F)F)cc2)nc2cc(Oc3ccnc(-c4ncc(C(F)(F)F)[nH]4)c3)ccc21 [CHIR265] (first compound 0.001 µM, partner dose 0.08 µM)	107
Cn1c(=O)n(-c2ccc(C(C)(C)C#N)cc2)c2c3cc(-c4cnc5ccccc5c4)ccc3ncc21 + C[C@]1(c2nc3c(C(N)=O)cccc3[nH]2)CCCN1 [Veliparib] (first compound 0.004 µM, partner dose 1.4 µM)	141
